Results as given in patent US8841274B2, “Protein arginine N-methyltransferase-5 method of cancer treatment” (priority 2009, dated 2014).

Test system: U2OS cells
Assay: Level of ectopic E2F-1 protein after transfection
Assay type: cell-based
Settings: 1 μg transfected into U2OS cells; compared to wild-type E2F-1

Substance: KKK: methylation-defective E2F-1 protein containing the mutations R109K, R111K and R113K
- level of ectopic protein: expressed at increased levels

Substance: KK: methylation-defective E2F-1 protein containing the mutations R111K and R113K
- level of ectopic protein: expressed at increased levels
